For experiment [1], the target named is Skp1 (budding yeast). Description: co-immunoprecipitation from yeast lysates (discussion of Example 1).
Experiment [2] deals with Skp1 (budding yeast). Briefly: anti-HA immunoprecipitation from yeast lysate, immunoblot.
Experiment [3] addresses T1, MYC-tagged Cdc53 (Saccharomyces cerevisiae) (UniProt Q12018).
T1 sequence: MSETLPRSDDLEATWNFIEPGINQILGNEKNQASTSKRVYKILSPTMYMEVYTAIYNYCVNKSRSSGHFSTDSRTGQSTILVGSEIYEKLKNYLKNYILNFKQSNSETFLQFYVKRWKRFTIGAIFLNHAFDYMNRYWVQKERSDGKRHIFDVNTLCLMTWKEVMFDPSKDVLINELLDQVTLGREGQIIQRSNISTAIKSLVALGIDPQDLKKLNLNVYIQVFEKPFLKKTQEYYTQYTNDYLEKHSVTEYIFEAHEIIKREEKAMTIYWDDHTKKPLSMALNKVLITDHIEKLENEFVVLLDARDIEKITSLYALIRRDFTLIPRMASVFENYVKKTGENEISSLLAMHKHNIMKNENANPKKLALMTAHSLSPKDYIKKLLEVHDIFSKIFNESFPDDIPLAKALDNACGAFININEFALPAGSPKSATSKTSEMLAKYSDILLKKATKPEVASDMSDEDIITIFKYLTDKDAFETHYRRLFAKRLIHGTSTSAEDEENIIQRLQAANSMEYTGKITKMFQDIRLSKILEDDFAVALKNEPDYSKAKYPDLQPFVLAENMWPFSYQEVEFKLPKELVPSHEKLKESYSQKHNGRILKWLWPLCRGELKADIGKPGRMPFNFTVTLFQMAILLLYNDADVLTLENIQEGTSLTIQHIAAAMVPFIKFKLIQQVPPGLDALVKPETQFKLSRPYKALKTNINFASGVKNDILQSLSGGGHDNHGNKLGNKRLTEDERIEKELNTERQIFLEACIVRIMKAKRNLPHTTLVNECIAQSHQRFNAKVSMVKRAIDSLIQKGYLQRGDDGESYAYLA
Description: deletion analysis by co-immunoprecipitation (discussion of Example 1).

Experiment [4] concerns the target Gal4^AD-Skp1 isolates (budding yeast). Briefly: yeast two-hybrid screen of Gal4^AD genomic and cDNA libraries.
For experiment [5], the target named is Skp1 (budding yeast). Description: anti-MYC immunoprecipitation from yeast lysate, immunoblot. (In general: In western blotting, separated proteins are transferred to a membrane and probed.)

These results are taken from patent US6426205.

No constants are given. Whether binding was seen depends on the method and setting. For some of these results: In cells and extracts the contact can be indirect. Some results given as binding are weak or reduced against the parent protein; the word gives no strength. For some of these results: Sequences can lack the tags named with a protein.

B1: HA-tagged Met30 (protein, not shown: small tags and cut ends)
chain: RMMSFEDKDKDDLDNSNSNNSSEMTDTAMMPPLKRLLITGSSDDLAQGSSGKKKMTMATRSPSSSPDLATNDSGTRVQPLPEYNFTKFCYRHNPDIQFSPTHTACYKQDLKRTQEINANIAKLPLQEQSDIHHIISKYSNSNDKIRKLILDGILSTSCFPQLSYISSLVTHMIKIDFISILPQELSLKILSYLDCQSLCNATRVCRKWQKLADDDRVWYHMCEQHIDRKCPNCGWGLPLLHMKRARIQQNSTGSSSNADIQTQTTRPWKVIYRERFKVESNWRKGHCRIQEFKGHMDGVLTLQFNYRLLFTGSYDSTIGIWDLFTGKLIRRLSGHSDGVKTLYFDDRKLITGSLDKTIRVWNYITGECISTYRGHSDSVLSVDSYQKVIVSGSADKTVKVWHVESRTCYTLRGHTEWVNCVKLHPKSFSCFSCSDDTTIRMWDIRTNSCLKVFRGHVGQVQKIIPLTIKDVENLATDNTSDGSSPQDDPTMTDGADESDTPSNEQETVLDENIPYPTHLLSCGLDNTIKLWDVKTGKCIRTQFGHVEGVWDIAADNFRIISGSHDGSIKVWDLQSGKCMHTFNGRRLQRETQHTQTQSLGDKVAPIACVCIGDSECFSGDEFGCVKMYKFDLND
With B1, the binding result with Skp1 (budding yeast) [1] and with Skp1 (budding yeast) [2] was “binds” throughout.

B2: HA-tagged version of Grr1 (protein, not shown: small tags and cut ends)
chain: LQDLSRYSRQFINNVLSNPSNQNICTSVTRRSPVFALNMLPSEILHLILDKLNQKYDIVKFLTVSKLWAEIIVKILYYRPHINKKSQLDLFLRTMKLTSEETVFNYRLMIKRLNFSFVGDYMHDTELNYFVGCKNLERLTLVFCKHITSVPISAVLRGCKFLQSVDITGIRDVSDDVFDTLATYCPRVQGFYVPQARNVTFDSLRNFIVHSPMLKRIKITANNNMNDELVELLANKCPLLVEVDITLSPNVTDSSLLKLLTRLVQLREFRITHNTNITDNLFQELSKVVDDMPSLRLIDLSGCENITDKTIESIVNLAPKLRNVFLGKCSRITDASLFQLSKLGKNLQTVHFGHCFNITDNGVRALFHSCTRIQYVDFACCTNLTNRTLYELADLPKLKRIGLVKCTQMTDEGLLNMVSLRGRNDTLERVHLSYCSNLTIYPIYELLMSCPRLSHLSLTAVPSFLRPDITMYCRPAPSDFSENQRQIFCVFSGKGVHKLRHYLVNLTSPAFGPHVDVNDVLTKYIRSKNLIFNGETLEDALRRIITDLNQDSAAIIAATGLNQINGLNNDFLFQNINFERIDEVFSWYLNTFDGIRMSSEEVNSLLLQVNKTFCEDPFSDVDDDQDYVVAPGVNREINSEMCHIVRKFHELNDHIDDFEVNVASLVRVQFQFTGFLLHEMTQTYMQMIELNRQICLVQKTVQESGNIDYQKGLLIWRLLFIDKFIMVVQKYKLSTVVLRLYLKDNITLLTRQRELLIAHQRSAWNNNNDNDANRNANNIVNIVSDAGANDTSNNETNNGNDDNETENPNFWRQFGNRMQISPDQMRNLQMGLRNQNMVRNNNNNTIDESMPDTAIDSQMDEASGTPDEDML
Turning to B2, the binding entry with Skp1 (budding yeast) [1] and with Skp1 (budding yeast) [2] was “binds” in each case.

B3: Cdc34 (enzyme, budding yeast, UniProt P14682 1-295, looked up)
chain: MSSRKSTASSLLLRQYRELTDPKKAIPSFHIELEDDSNIFTWNIGVMVLNEDSIYHGGFFKAQMRFPEDFPFSPPQFRFTPAIYHPNVYRDGRLCISILHQSGDPMTDEPDAETWSPVQTVESVLISIVSLLEDPNINSPANVDAAVDYRKNPEQYKQRVKMEVERSKQDIPKGFIMPTSESAYISQSKLDEPESNKDMADNFWYDSDLDDDENGSVILQDDDYDDGNNHIPFEDDDVYNYNDNDDDDERIEFEDDDDDDDDSIDNDSVMDRKQPHKAEDESEDVEDVERVSKKI
Turning to B3, the binding result in experiment [3] is “binds”.

B4: Gal4^DBD-Cdc53^ΔK (protein, not shown: small tags and cut ends)
chain: MSETLPRSDDLEATWNFIEPGINQILGNEKNQASTSKRVYKILSPTMYMEVYTAIYNYCVNKSRSSGHFSTDSRTGQSTILVGSEIYEKLKNYLKNYILNFKQSNSETFLQFYVKRWKRFTIGAIFLNHAFDYMNRYWVQKERSDGKRHIFDVNTLCLMTWKEVMFDPSKDVLINELLDQVTLGREGQIIQRSNISTAIKSLVALGIDPQDLKKLNLNVYIQVFEKPFLKKTQEYYTQYTNDYLEKHSVTEYIFEAHEIIKREEKAMTIYWDDHTKKPLSMALNKVLITDHIEKLENEFVVLLDARDIEKITSLYALIRRDFTLIPRMASVFENYVKKTGENEISSLLAMHKHNIMKNENANPKKLALMTAHSLSPKDYIKKLLEVHDIFSKIFNESFPDDIPLAKALDNACGAFININEFALPAGSPKSATSKTSEMLAKYSDILLKKATKPEVASDMSDEDIITIFKYLTDKDAFETHYRRLFAKRLIHGTSTSAEDEENIIQRLQAANSMEYTGKITKMFQDIRLSKILEDDFAVALKNEPDYSKAKYPDLQPFVLAENMWPFSYQEVEFKLPKELVPFIKFKLIQQVPPGLDALVKPETQFKLSRPYKALKTNINFASGVKNDILQSLSGGGHDNHGNKLGNKRLTEDERIEKELNTERQIFLEACIVRIMKAKRNLPHTTLVNECIAQSHQRFNAKVSMVKRAIDSLIQKGYLQRGDDGESYAYLA
For the molecule B4, the binding entry in experiment [4] is “binds”.

B5: Cdc53 with deletion of residues 448-748 (MYC-tagged) (protein, not shown: small tags and cut ends)
chain: MSETLPRSDDLEATWNFIEPGINQILGNEKNQASTSKRVYKILSPTMYMEVYTAIYNYCVNKSRSSGHFSTDSRTGQSTILVGSEIYEKLKNYLKNYILNFKQSNSETFLQFYVKRWKRFTIGAIFLNHAFDYMNRYWVQKERSDGKRHIFDVNTLCLMTWKEVMFDPSKDVLINELLDQVTLGREGQIIQRSNISTAIKSLVALGIDPQDLKKLNLNVYIQVFEKPFLKKTQEYYTQYTNDYLEKHSVTEYIFEAHEIIKREEKAMTIYWDDHTKKPLSMALNKVLITDHIEKLENEFVVLLDARDIEKITSLYALIRRDFTLIPRMASVFENYVKKTGENEISSLLAMHKHNIMKNENANPKKLALMTAHSLSPKDYIKKLLEVHDIFSKIFNESFPDDIPLAKALDNACGAFININEFALPAGSPKSATSKTSEMLAKYSDILLIFLEACIVRIMKAKRNLPHTTLVNECIAQSHQRFNAKVSMVKRAIDSLIQKGYLQRGDDGESYAYLA
In the case of B5, in the experiment with Skp1 (budding yeast) [5], the binding result is given as “binds”.
